Reference: PubChem BioAssay AID540275 (National Center for Advancing Translational Sciences (NCATS), 2011)
The whole screen tested about 320,000 compounds, of which about 620 (0.19%) were called active. Inconclusive means that the source gave no clear call. Such entries were picked first, then a sample of the others. Rule as the data show it: active = activation above about 80%; inconclusive = between about 30% and that limit; inactive = weaker than that.
Also: 0% is about no effect.

By UniProt entry, the sequences of proteins in these tests, tags left out.
UniProt Q8NER1, whole entry, looked up: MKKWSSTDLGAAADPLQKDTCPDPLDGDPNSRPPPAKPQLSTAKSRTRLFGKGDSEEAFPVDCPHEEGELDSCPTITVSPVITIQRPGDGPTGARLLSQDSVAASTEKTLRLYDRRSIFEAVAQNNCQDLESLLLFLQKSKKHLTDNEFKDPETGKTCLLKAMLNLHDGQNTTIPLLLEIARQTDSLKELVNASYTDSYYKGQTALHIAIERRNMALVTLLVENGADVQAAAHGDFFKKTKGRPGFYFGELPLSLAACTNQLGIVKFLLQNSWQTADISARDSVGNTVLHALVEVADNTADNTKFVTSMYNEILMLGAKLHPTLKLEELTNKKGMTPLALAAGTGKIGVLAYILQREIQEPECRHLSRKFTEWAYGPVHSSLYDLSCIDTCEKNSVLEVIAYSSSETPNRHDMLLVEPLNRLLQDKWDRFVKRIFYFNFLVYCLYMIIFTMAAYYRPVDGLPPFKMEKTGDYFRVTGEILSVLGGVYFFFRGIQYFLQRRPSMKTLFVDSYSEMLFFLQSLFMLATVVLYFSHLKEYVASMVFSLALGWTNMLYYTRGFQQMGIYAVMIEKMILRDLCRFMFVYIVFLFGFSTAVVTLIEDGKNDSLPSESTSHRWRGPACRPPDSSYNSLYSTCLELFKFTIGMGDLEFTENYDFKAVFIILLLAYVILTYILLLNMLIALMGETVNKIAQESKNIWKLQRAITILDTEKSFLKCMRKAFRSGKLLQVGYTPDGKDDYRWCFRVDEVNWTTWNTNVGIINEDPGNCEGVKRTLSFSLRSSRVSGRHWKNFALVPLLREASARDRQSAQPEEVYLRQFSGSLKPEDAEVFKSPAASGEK

What follows are molecules tested against Transient receptor potential cation channel subfamily V member 1 (Homo sapiens) (UniProt Q8NER1) (assay: HTS Assay for Compounds that Act as Agonists of the Vanilloid Receptor 1). Conditions: TRPV1-expressing cells, Fluo-8 calcium influx, agonist mode; at 8.33 µM, stronger effect = higher value.
How it was run: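 TRPV1-expressing cells were cultured overnight at 35.5C and loaded with Fluo-8 calcium dye for 40 to 90 min at room temperature. After a 10 s baseline, compound was added and calcium influx was read kinetically for 3 min (ex 480/em 520 nm).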
`CC(C)c1nnc(NC(=O)c2nc(S(=O)(=O)Cc3ccc(F)cc3)ncc2Cl)s1` was tested, and the activation was inactive: 2.46%.
With `Cc1c(C(=O)NC2CCCCC2)oc2ccccc12` the activation was inconclusive: 43.4%.
In the case of `CCOCCn1c(COc2ccc(C)cc2)nc2ccccc21`, the activation is reported as inconclusive: 51.9%.
For `BrC(=C\c1ccccc1)/C=N/N1CCN(Cc2ccccc2)CC1`, the activation was inconclusive: 43.9%.
In the case of `CCCCN(CC)C(=O)c1cc2cc3ccc(Cl)cc3nc2o1`, the activation is reported as inconclusive: 37.2%.
For `COc1ccc(-c2cc(C(=O)Nc3ccccc3O)c3ccccc3n2)cc1OC`, the activation was inconclusive: 48.8%.
For `COc1ccc(C)cc1NC(=O)c1cc2c(s1)CCC2`, the activation was inconclusive: 30.2%.
With `O=C(c1ccccc1O)N1N=C(C(F)(F)F)CC1(O)c1ccc([N+](=O)[O-])cc1` (stereo not drawn) the activation was inactive: 12.9%.
For `O=C(Nc1ccccc1)c1cc(Cl)nc2ccccc12`, the activation was inconclusive: 32.3%.
For `CNC(=O)C1CC(=O)N(CCCc2ccccc2)C(=Nc2ccccc2)S1` (stereo not drawn), the activation was inconclusive: 47.7%.
For `COc1cccc(CSc2nc3ccccc3[nH]2)c1`, the activation was inconclusive: 54.7%.
In the case of `O=C(NCc1ccncc1)c1cc(-c2ccc(Cl)cc2)oc1C(F)(F)F`, the activation is reported as inconclusive: 62.2%.
`CCOC(=O)C(=CNc1ccc(C(F)(F)F)cc1)C(=O)OCC` was tested, and the activation was inactive: 13.3%.
`COCCN1C=C2C(=O)C(C)(OC(=O)c3cccs3)C(=O)C=C2C=C1CCCC(=O)OC` (stereo not drawn) was tested, and the activation was inactive: -1.78%.
In the case of `Cc1ccccc1-n1ncc2c1CC(C)(C)CC2NC(=O)c1snnc1C` (stereo not drawn), the activation is reported as inconclusive: 71.1%.
`CCOc1ccc(NC(=O)C2CCN(C(=O)C3CC(=O)N(c4ccc(C)cc4)C3)CC2)cc1` (stereo not drawn) was tested, and the activation was inconclusive: 57.7%.
With `O=C(Nc1ccc(Cl)c([N+](=O)[O-])c1)c1ccco1` the activation was inconclusive: 33%.
For `COc1ccc(-c2cc(C(F)(F)F)nc(SCC(=O)NCc3cccs3)n2)cc1`, the activation was inconclusive: 49.3%.
`COc1ccc2cc(C(=O)C3CCCN(Cc4cnc(C)s4)C3)ccc2c1` (stereo not drawn) was tested, and the activation was inconclusive: 39.7%.
`O=C(/C=C/c1ccccc1)N1CCC(Cc2ccccc2)CC1` was tested, and the activation was inconclusive: 41.1%.
For `CC1CC(=S)Nc2ccccc2N1Cc1ccccc1` (stereo not drawn), the activation was inconclusive: 49.5%.
In the case of `O=C(/C=C/c1ccc2c(c1)OCO2)NCCSCc1cccc(Cl)c1`, the activation is reported as inconclusive: 45.5%.
In the case of `CC(NC(=O)CN(c1cccc(C(F)(F)F)c1)S(=O)(=O)c1ccc(Cl)c([N+](=O)[O-])c1)c1ccccc1` (stereo not drawn), the activation is reported as inconclusive: 46.7%.
With `CCCN1C(=O)/C(=C/c2ccco2)SC1=Nc1ccc(OC)cc1` the activation was inconclusive: 33%.
`Fc1cccc(Nc2ncnc3[nH]ncc23)c1` was tested, and the activation was inconclusive: 40.2%.
In the case of `O=C(Nc1ccc(Cl)cc1)OCc1cc(-c2ccccc2Cl)on1`, the activation is reported as inconclusive: 33.4%.
In the case of `O=C(/C=C/c1cccc(Br)c1)NCC1CCCCC1`, the activation is reported as inconclusive: 43.1%.
For `NS(=O)(=O)c1ccc(NC(=S)NCc2ccc(Cl)cc2)cc1`, the activation was inconclusive: 53%.
For `O=C(CCSc1ccc(Cl)cc1)N1CCN(c2ncccn2)CC1`, the activation was inconclusive: 34%.
`Cc1ccccc1-c1nc(CS(=O)CC(=O)NCc2ccccc2)c(C)o1` (stereo not drawn) was tested, and the activation was inconclusive: 35.4%.
For `CC(NC(=O)c1ccc(Cl)s1)C1CCCO1` (stereo not drawn), the activation was inactive: 3.72%.
For `CC(=O)c1cccc(OCc2cc(C(=O)NCCC3=CCCCC3)no2)c1`, the activation was inconclusive: 34.5%.
With `Oc1ccc(Nc2ncnc3c2oc2ccccc23)cc1` the activation was inconclusive: 60%.
With `O=C(NCc1ccc2c(c1)OCO2)c1ccc2c(c1)N(Cc1cccc(Cl)c1)C(=O)c1ccccc1S2` the activation was inconclusive: 72.5%.
With `S=C(NCc1cccnc1)Nc1cccc2ccccc12` the activation was inconclusive: 52.1%.
In the case of `COc1ccc(CNC(=O)c2ccc(Cn3nc(C)cc3C)o2)cc1`, the activation is reported as inactive: 8.05%.
`CCOc1ccc(NC(=O)Nc2cccs2)cc1` was tested, and the activation was inconclusive: 43.5%.
For `CCC1=Nc2cc(C(=O)NCCCOC)ccc2Sc2ccccc21`, the activation was inconclusive: 34.5%.
`Cc1cc(C)n(-c2n[nH]c(=O)c3ccccc23)n1` was tested, and the activation was inactive: 0.529%.
With `COc1ccccc1NC(=O)CN1CCC(C(=O)c2ccc(F)cc2)CC1` the activation was inconclusive: 37.7%.
`O=C(CN1CCN(Cc2ccc(F)cc2)CC1)Nc1nc2ccccc2s1` was tested, and the activation was inactive: 5.21%.
In the case of `C/C(=N\NC(=O)C1(C)CC1(Br)Br)c1cccc(NC(=O)c2ccc(C)o2)c1` (stereo not drawn), the activation is reported as inconclusive: 49.3%.
For `O=C(Nc1cccc(O)c1)c1cc(-c2ccco2)on1`, the activation was inconclusive: 42.1%.
`Brc1csc(C=Nc2ccc3c(c2)OCCOCCOCCOCCO3)c1` was tested, and the activation was inactive: -1.33%.
In the case of `COC(=O)Cc1ccc(NC(=O)c2ccc(Br)o2)cc1`, the activation is reported as inconclusive: 36.7%.
`S=C(NCCN1CCOCC1)N/N=C/c1c2ccccc2cc2ccccc12` was tested, and the activation was inactive: 2.06%.
With `NS(=O)(=O)c1ccc(NC(=O)COc2ccc(Cl)cc2)cc1` the activation was inconclusive: 49%.
In the case of `S=C(N/N=C/c1ccc(Cl)cc1)N1CCOCC1`, the activation is reported as inconclusive: 55%.
For `O=C(C1CC1)N1CCN(c2nc3ccccc3s2)CC1`, the activation was inconclusive: 35.7%.
In the case of `CCc1nc(N2CCCCC2)c2oc3ccccc3c2n1`, the activation is reported as inconclusive: 46%.
With `Cc1ccc(C(C)C)c(OCCNC(=O)c2cncc(Br)c2)c1` the activation was inconclusive: 46.5%.
`CC(C)CCNC(=O)COc1ccc(C(=O)c2ccccc2)cc1` was tested, and the activation was inconclusive: 36.1%.
In the case of `CCSc1nnc(Nc2ccccc2)s1`, the activation is reported as inconclusive: 44.2%.
With `O=C(CCN1CCN(c2ccccc2)CC1)c1ccc(Br)cc1` the activation was inactive: 19.5%.
With `c1ccc(Oc2ccc(-c3ccnc4ncnn34)cc2)cc1` the activation was inconclusive: 33.8%.
With `Cc1nn(Cc2ccccc2)c(C)c1NC(=O)CCCn1nc(C)c([N+](=O)[O-])c1C` the activation was inactive: -1.61%.
With `CC(C)(C)N1C(=O)c2ccc(C(=O)Nc3nccs3)cc2C1=O` the activation was inconclusive: 36.1%.
With `COc1ccc(NS(=O)(=O)c2cc(NC(=O)C3CCCO3)ccc2N2CCCCC2)cc1` (stereo not drawn) the activation was inconclusive: 43.6%.
In the case of `CCOc1cc2[nH]c(=O)n(CCCN3CCCC3=O)c(=O)c2cc1OCC`, the activation is reported as inactive: -3.74%.
`CC1CC(C)CN(C(=O)c2cc(S(=O)(=O)N3CCCCC3)ccc2Cl)C1` (stereo not drawn) was tested, and the activation was active: 104%.
For `Cc1ccc(CC(=O)NCC2CCCCC2)cc1`, the activation was inconclusive: 45.1%.
For `c1ccc2nc3ccccc3nc2c1`, the activation was inactive: 0.0639%.
`CC(=O)c1ccc(NC(=O)c2noc(C)c2[N+](=O)[O-])cc1` was tested, and the activation was inconclusive: 39%.
With `Cc1c(Cc2ccccc2)c(=O)oc2cc(OCC(N)=O)ccc12` the activation was inconclusive: 31.7%.
For `Cc1ccc(C(=O)N(Cc2ccc3c(c2)OCO3)Cc2nc3ccccc3c(=O)[nH]2)cc1`, the activation was inactive: -2.52%.
In the case of `Cn1c(C(=O)OCC(=O)NCc2ccc(F)cc2)cc2occc21`, the activation is reported as inconclusive: 39.6%.
For `Cc1sc2ncn(CC(=O)Nc3ccccc3F)c(=O)c2c1-c1ccccc1`, the activation was inactive: -1.39%.
In the case of `CCOCc1c(C(=O)NC2CCCCCC2)oc2ccccc12`, the activation is reported as inconclusive: 68.2%.
With `COc1cc(/C=C(/C#N)C(=O)NCc2ccccc2)cc(OC)c1OC` the activation was inconclusive: 35.2%.
For `CCc1ccc(S(=O)(=O)c2nnn3c2nc(NCCNC(C)=O)c2ccccc23)cc1`, the activation was inactive: -1.54%.
With `O=C(COC(=O)CNC(=O)c1cccs1)Nc1ccc(C(F)(F)F)cc1[N+](=O)[O-]` the activation was inconclusive: 52.1%.
With `CC(C)=CC1C(C(=O)NCCOc2ccccc2)C1(C)C` (stereo not drawn) the activation was inconclusive: 50.2%.
For `CCOc1ccc2nc(N3CCC(C(=O)N4CCN(c5ccccn5)CC4)CC3)sc2c1`, the activation was inconclusive: 41.5%.
For `Fc1cccc(Cl)c1CSc1ccc(-c2cccnc2)nn1`, the activation was inconclusive: 40%.
`Cc1ccc(SC[C@H](Cc2ccccc2)N2CCN(CC(C)C)CCC2=O)cc1` was tested, and the activation was inconclusive: 43.4%.
`Cc1noc(C)c1COc1ccccc1C(=O)NCCc1ccccc1` was tested, and the activation was inconclusive: 31.6%.
In the case of `Cc1ccc(-c2cnc(NC(=O)CCC(=O)N3CCCCC3)n2C)cc1`, the activation is reported as inconclusive: 39.3%.
For `O=C(Nc1ccc2c(c1)COC2=O)c1ccc(Cl)c(Cl)c1`, the activation was inconclusive: 48.2%.
With `COc1ccc(-c2nc(CS(=O)(=O)CC(=O)NC3CCCCCC3)c(C)o2)cc1` the activation was inactive: 11.8%.
For `COc1cccc(C(=O)Nc2cc(C)ccc2NC(=O)COc2ccccc2)c1`, the activation was inconclusive: 47.4%.
`O=C(Nc1ccc(Br)cn1)c1ccc2ccccc2c1` was tested, and the activation was inconclusive: 55.2%.
`CCOc1ccc2nc(-c3ccccc3)[nH]c2c1` was tested, and the activation was inconclusive: 46.5%.
In the case of `Cn1c(CCN2CCCCC2)nc2cc(NS(=O)(=O)c3ccc(F)cc3)ccc21`, the activation is reported as inactive: 2.21%.
`Cc1cc(C)nc(-n2nc(C)cc2Nc2ccccc2)n1` was tested, and the activation was inconclusive: 49.7%.
For `CCN(CC)C(=O)c1sc2nc(N3CCOCC3)c3c(c2c1N)CCCC3`, the activation was inconclusive: 37.4%.
For `CC1CCN(S(=O)(=O)c2ccc(NC(=O)c3ccccc3F)cc2)CC1`, the activation was inconclusive: 44.5%.
In the case of `O=C(COc1ccc2ccccc2c1)NN1C(=O)c2ccccc2C1=O`, the activation is reported as inactive: -0.846%.
`Cc1ccc(C)c(N(Cc2cc3ccc(C)cc3[nH]c2=O)C(=O)c2ccco2)c1` was tested, and the activation was inconclusive: 30.1%.
In the case of `C=CCn1c(SCC(=O)N2CCc3ccccc3C2)nc2ccccc2c1=O`, the activation is reported as inconclusive: 49.8%.
In the case of `CCCCCCSc1cccc(-c2nc3ccc(C)cn3c2NCc2ccccc2)c1`, the activation is reported as inconclusive: 48.8%.
For `Cc1ccc(CSCC(=O)NCc2ccc(F)cc2)cc1`, the activation was active: 82%.
`COC(=O)c1ccccc1NC(=S)NC(=O)c1cccc2ccccc12` was tested, and the activation was inactive: 2.75%.
With `O=C(CNC(=O)C12CC3CC(CC(C3)C1)C2)OCc1ccc(F)cc1Cl` the activation was inconclusive: 38.6%.
